Values from PubChem BioAssay AID504793 (Drosophila RNAi Screening Center, 2011).
The deposit covers about 23,000 reagents; shown is a random part of those with a known target gene and a result. Over the whole deposit, 62 (0.27%) were called active. 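Calls come from follow-up tests whose scores are not deposited, so confirmed genes may have low counts here; counts are not normalised per plate.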 Raw values vary from plate to plate and are shown uncorrected. Entries without a mark were called inactive.

Assay: 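Genes required for cells to halt at G2/M after double-strand DNA breaks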 (primary screen)
Cells: Drosophila S2R+ cells
Reagent: long dsRNA against Drosophila genes, about 0.25 µg dsRNA per well
Duration: 4 days of dsRNA, then 4 hours of drug before read-out
Conditions: doxorubicin 0.5 µM for 4 hours to cause double-strand breaks, in cells also given a low, harmless dose of dsRNA against nbs to sensitise the assay
Read-out: 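Mitotic index as the number of phospho-histone H3-positive cells in each well following doxorubicin, given as raw counts without normalisation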
Scale: mitotic cells: higher = more cells in mitosis, weaker G2 arrest
Hit rule: 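Genes are called active only when high mitotic counts were reproduced with independent dsRNAs and mitosis was checked for delay without damage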
Calls: active = confirmed in follow-up tests; inactive = not confirmed

For Drice (Death related ICE-like caspase) [DRSC16715], how do the results read?
mitotic cells, replicate 1: 5

What is on record for Drice (Death related ICE-like caspase) [DRSC27804]?
mitotic cells, replicate 1: 3

For Gdap1 [DRSC10437], what does the deposit list?
mitotic cells, replicate 1: 8

How did the screen score Gdap1 [DRSC28286]?
mitotic cells, replicate 1: 3

With CG3552 [DRSC10370], what was measured?
mitotic cells, replicate 1: 2

Which result is listed for tth (toothrin) [DRSC19435]?
mitotic cells, replicate 1: 9

What is on record for tth (toothrin) [DRSC25120]?
mitotic cells, replicate 1: 6

For x16 (x16 splicing factor) [DRSC00960], what does the deposit list?
mitotic cells, replicate 1: 9

What did the screen give for x16 (x16 splicing factor) [DRSC03638]?
mitotic cells, replicate 1: 6

Which result is listed for x16 (x16 splicing factor) [DRSC23865]?
mitotic cells, replicate 1: 3

What is on record for CG13124 [DRSC02220]?
mitotic cells, replicate 1: 6

For CG13124 [DRSC27328], how do the results read?
mitotic cells, replicate 1: 6

With dyl (dusky-like) [DRSC08466], what does the deposit list?
mitotic cells, replicate 1: 5

How did the screen score dyl (dusky-like) [DRSC08467]?
mitotic cells, replicate 1: 3

With dyl (dusky-like) [DRSC24188], what does the deposit list?
mitotic cells, replicate 1: 2

Looked up above:
Drice (Death related ICE-like caspase) [DRSC27804], mitotic cells, replicate 1 = 3
Result for dyl (dusky-like) [DRSC24188] in “mitotic cells, replicate 1”: 2
For “mitotic cells, replicate 1”, Drice (Death related ICE-like caspase) [DRSC16715] is entered as 5

The listing continues:
What is on record for CG14658 [DRSC12244]?
mitotic cells, replicate 1: 2

With Dtwd2 (DTW domain containing 2) [DRSC12501], what does the deposit list?
mitotic cells, replicate 1: 6

What is on record for CG13560 [DRSC04198]?
mitotic cells, replicate 1: 4

For CG13560 [DRSC27479], what does the deposit list?
mitotic cells, replicate 1: 9

What did the screen give for Alp7 (Alkaline phosphatase 7) [DRSC04355]?
mitotic cells, replicate 1: 9

Which result is listed for Alp7 (Alkaline phosphatase 7) [DRSC27071]?
mitotic cells, replicate 1: 4

What did the screen give for Pfdn2 (Prefoldin 2) [DRSC10618]?
mitotic cells, replicate 1: 1

With Coq6 (Coenzyme Q6) [DRSC03040], what does the deposit list?
mitotic cells, replicate 1: 6

With Coq6 (Coenzyme Q6) [DRSC29622], what does the deposit list?
mitotic cells, replicate 1: 9

With Cog4 (Component of oligomeric golgi complex 4) [DRSC03057], what does the deposit list?
mitotic cells, replicate 1: 5

With CG6688 [DRSC16094], what does the deposit list?
mitotic cells, replicate 1: 9

What is on record for CG6688 [DRSC25613]?
mitotic cells, replicate 1: 6

For prim (primacord) [DRSC06575], what does the deposit list?
mitotic cells, replicate 1: 4

What did the screen give for Spt (Spitting Image) [DRSC07123]?
mitotic cells, replicate 1: 2

For Spt (Spitting Image) [DRSC29487], what was measured?
mitotic cells, replicate 1: 10

How did the screen score CG5958 [DRSC02915]?
mitotic cells, replicate 1: 2

With inaE (inactivation no afterpotential E) [DRSC19376], what was measured?
mitotic cells, replicate 1: 19

With inaE (inactivation no afterpotential E) [DRSC19377], what does the deposit list?
mitotic cells, replicate 1: 7

Which result is listed for inaE (inactivation no afterpotential E) [DRSC19379]?
mitotic cells, replicate 1: 20

With inaE (inactivation no afterpotential E) [DRSC26883], what does the deposit list?
mitotic cells, replicate 1: 5
